PMC6052026
No constants are given. Whether binding was seen depends on the method and setting. Binding seen in cells or lysates may run through a third protein. These calls come from enrichment with a bait or labelling near it, and not all partners need be listed.

Amino acid sequences for entries named in this document (tags omitted).
UniProt P35637: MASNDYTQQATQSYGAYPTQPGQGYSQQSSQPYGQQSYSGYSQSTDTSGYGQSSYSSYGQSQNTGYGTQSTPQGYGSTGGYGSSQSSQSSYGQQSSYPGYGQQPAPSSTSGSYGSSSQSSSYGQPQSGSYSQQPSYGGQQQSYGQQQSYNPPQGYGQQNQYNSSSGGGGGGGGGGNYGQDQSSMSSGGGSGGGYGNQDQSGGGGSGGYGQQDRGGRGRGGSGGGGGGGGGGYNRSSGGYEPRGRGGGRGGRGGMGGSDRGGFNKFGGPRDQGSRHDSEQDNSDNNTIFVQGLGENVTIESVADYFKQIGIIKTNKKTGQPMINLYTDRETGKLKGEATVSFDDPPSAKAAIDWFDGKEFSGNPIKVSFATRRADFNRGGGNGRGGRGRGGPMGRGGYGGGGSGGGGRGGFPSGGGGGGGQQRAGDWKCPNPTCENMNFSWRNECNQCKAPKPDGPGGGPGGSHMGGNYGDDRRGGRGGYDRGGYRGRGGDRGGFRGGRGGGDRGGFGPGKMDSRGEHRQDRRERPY
UniProt O00571: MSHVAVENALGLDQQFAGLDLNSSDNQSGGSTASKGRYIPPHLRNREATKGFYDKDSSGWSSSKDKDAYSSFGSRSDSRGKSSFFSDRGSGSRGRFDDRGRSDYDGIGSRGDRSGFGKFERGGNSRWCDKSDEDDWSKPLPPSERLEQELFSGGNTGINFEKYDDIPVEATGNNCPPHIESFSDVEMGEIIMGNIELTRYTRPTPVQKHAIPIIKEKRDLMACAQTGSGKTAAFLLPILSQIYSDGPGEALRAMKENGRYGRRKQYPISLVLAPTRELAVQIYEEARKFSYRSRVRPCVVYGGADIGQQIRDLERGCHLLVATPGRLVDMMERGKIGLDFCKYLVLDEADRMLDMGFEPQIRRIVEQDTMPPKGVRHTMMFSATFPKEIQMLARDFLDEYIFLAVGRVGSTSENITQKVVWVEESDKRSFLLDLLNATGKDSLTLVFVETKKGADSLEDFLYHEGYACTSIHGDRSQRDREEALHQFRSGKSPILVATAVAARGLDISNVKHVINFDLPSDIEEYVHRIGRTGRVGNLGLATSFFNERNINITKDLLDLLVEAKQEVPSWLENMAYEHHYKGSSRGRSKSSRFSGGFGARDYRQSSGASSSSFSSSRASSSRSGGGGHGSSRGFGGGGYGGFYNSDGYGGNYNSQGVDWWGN

Columns and labels:
[1] = biological target: T1, C9ORF72 (human (endogenous in HeLa)) (UniProt Q96LT7); test: affinity purification with mass spectrometry; endogenous C9ORF72 immunoprecipitates from HeLa cells against IgG controls, three biological replicates, LC-MS/MS, SAINT (BFDR < 0.05); arsenite-treated and untreated cells
T1 sequence: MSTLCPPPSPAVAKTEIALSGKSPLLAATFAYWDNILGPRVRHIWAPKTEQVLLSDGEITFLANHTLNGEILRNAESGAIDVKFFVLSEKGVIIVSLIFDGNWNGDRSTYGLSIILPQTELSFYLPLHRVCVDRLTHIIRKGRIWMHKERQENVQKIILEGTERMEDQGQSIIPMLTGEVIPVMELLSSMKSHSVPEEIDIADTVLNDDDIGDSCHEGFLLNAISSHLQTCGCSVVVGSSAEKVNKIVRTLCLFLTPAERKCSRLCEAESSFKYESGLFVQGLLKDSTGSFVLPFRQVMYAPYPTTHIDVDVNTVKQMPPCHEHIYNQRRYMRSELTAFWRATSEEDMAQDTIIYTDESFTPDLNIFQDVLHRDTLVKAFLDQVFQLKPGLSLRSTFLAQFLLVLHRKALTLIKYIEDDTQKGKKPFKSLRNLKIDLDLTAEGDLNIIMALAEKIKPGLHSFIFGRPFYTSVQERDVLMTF

HA-p62 = HA-p62 (UniProt Q13501); test: affinity purification with mass spectrometry; HA-p62 immunoprecipitates from HeLa cells against IgG control, with and without arsenite, LC-MS/MS, SAINT

| binding [1] | binding (HA-p62) | Substance |
| --- | --- | --- |
| binds |  | FUS (from UniProt P35637 1-526) |
|  | binds | DDX3 (from UniProt O00571 1-662) |
